# Substitutions are numbered along the chain they refer to. These are yes or no findings as the source states them, for the method shown. Some entries that bind do so weakly or less than the wild type.
# T1: Redβ K148A (Bacteriophage λ (Enterobacteria phage λ), UniProt P03698 1-261, K148A)
# T1 sequence: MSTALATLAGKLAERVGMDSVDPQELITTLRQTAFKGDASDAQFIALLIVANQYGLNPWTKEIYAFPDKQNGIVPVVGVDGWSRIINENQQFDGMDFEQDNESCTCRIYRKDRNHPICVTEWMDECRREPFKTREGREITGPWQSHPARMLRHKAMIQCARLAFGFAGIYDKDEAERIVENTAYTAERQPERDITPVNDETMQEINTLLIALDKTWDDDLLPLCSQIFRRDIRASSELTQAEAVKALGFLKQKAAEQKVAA
# T2: Redβ R149A (Bacteriophage λ (Enterobacteria phage λ), UniProt P03698 1-261, R149A)
# T2 sequence: T1 sequence with A148K, R149A
# B1: Redβ K148A (natural protein, bacteriophage λ)
# chain: GSHMSTALATLAGKLAERVGMDSVDPQELITTLRQTAFKGDASDAQFIALLIVANQYGLNPWTKEIYAFPDKQNGIVPVVGVDGWSRIINENQQFDGMDFEQDNESCTCRIYRKDRNHPICVTEWMDECRREPFKTREGREITGPWQSHPARMLRHKAMIQCARLAFGFAGIYDKDEAERIVENTAYTAERQPERDITPVNDETMQEINTLLIALDKTWDDDLLPLCSQIFRRDIRASSELTQAEAVKALGFLKQKAAEQKVAA
# notes: three residues (Gly-Ser-His) left before the initial methionine after thrombin removal of the tag; Redβ, recombinase of Enterobacteria phage λ, alanine substitution mutant; By gel filtration complexes of approximately 3 subunits; source: E. coli BL21(DE3), purified (HisTrap FF, thrombin digestion, HisTrap FF, Benzamidine FF); not shown: His6, N-terminal, cleaved
# B2: Redβ R149A (natural protein, bacteriophage λ)
# chain: B1 chain with A151K, R152A
# notes: as for B1
# How the values were obtained:
# Redβ K148A = target: T1, Redβ K148A; experiment: negative-stain transmission electron microscopy; 10 µM protein without ssDNA, 20 mM potassium phosphate pH 6.0, 20 mM MgCl2, 37°C 40 min, fixed with 0.6% glutaraldehyde, diluted 5-fold, stained with 3% phosphotungstic acid; self-association; both purified
# Redβ R149A = target: T2, Redβ R149A; experiment: as above
Binder,binding (Redβ K148A),binding (Redβ R149A)
B1,binds weakly,–
B2,–,binds weakly
